# Results reported in paper PMC12040169 (PLOS Biology, 2025).
# This is one part of the list.
# Test system: T1, CTL2-GFP (C. trachomatis L2/434/Bu, GFP-expressing)
# T1 construct: L2/434/Bu, GFP-expressing
# Design: species or system HeLa; Intracellular C. trachomatis growth in HeLa cells, bulk GFP fluorescence relative to DMSO
# Conditions: bulk GFP, single well; 28.5 h, 10 µM; inhibitor
row,SMILES,% of control remaining
1,FC(F)(F)Oc1cccc(-c2cn3ccnc3c(NCCc3ccccn3)n2)c1 [CBK038017],215.398%
2,CN(CCC1CCN(c2ccncc2)CC1)C(=O)c1cc2sccc2[nH]1 [CBK305468],123.376%
3,CCc1nc2cccnc2n1CCNC(=O)Cc1cccs1 [CBK283639],112.772%
4,COc1ccc([C@@]23CC[C@@H](C(=O)Nc4ccc(C(F)(F)F)cn4)C[C@@H]2N(C)CC3)cc1OC [CBK046310T],113.293%
5,CCOC(=O)C1(C2CCCCC2)CCN(C(=O)c2ccc(OC(F)(F)F)cc2)CC1 [CBK136921],99.0205%
6,CCOc1ccc(N)cc1S(N)(=O)=O [CBK010112],109.763%
7,CN(Cc1ccccc1)C(=O)c1c[nH]nc1C1CCCN(CC2CCCCC2)C1 (centres unmarked) [CBK286489],116.227%
8,COc1ccc2c(c1)c(CN1CCCN(S(=O)(=O)c3ccc(-c4ccccc4)cc3)CC1)cn2C [CBK063125],121.016%
9,O=C(c1ccc2[nH]ccc2c1)N1CCCC1 [CBK149074],91.7953%
10,CCOc1ccc(Cl)cc1CN(C)C(=O)NCC(c1ccco1)N(C)C (centres unmarked) [CBK307013],130.8%
11,CC(=O)c1ccc(-c2nc(NC(=O)CC#N)cnc2-c2ccc(F)c(Cl)c2)s1 [CBK036841],97.3546%
12,O=C(Nc1c[nH]c(=O)[nH]c1=O)c1ccc(Oc2ccc(C(=O)Nc3c[nH]c(=O)[nH]c3=O)cc2)cc1 [CBK261184],99.6085%
13,COc1ccc(C(NC(=O)c2ccc(N3C(=O)CCC3=O)cc2)c2ccccc2)cc1 (centres unmarked) [CBK285737],121.048%
14,NC(=O)CCN(CCC(N)=O)S(=O)(=O)c1ccc(N)cc1 [CBK262134],109.985%
15,CN1CCN(C(=O)COc2ccc(S(=O)(=O)Nc3ccc(Cl)cc3)cc2)CC1 [CBK268248],124.635%
16,CC(CNC(=O)COc1ccc2ccccc2c1Br)CN(C)C (centres unmarked) [CBK267369],158.049%
17,N=c1n(CCCOc2ccc(Br)cc2)c2ccccc2n1CC(N)=O [CBK268786C],87.1677%
18,CCOC(=O)c1cnn(C2CCCN(Cc3cc[nH]n3)C2)c1 (centres unmarked) [CBK305125],132.568%
19,Nc1ncnc(NCCc2ccc(Cl)cc2)c1[N+](=O)[O-] [CBK267351],171.003%
20,O=C(CCc1ccccc1)Nc1cccc2nsnc12 [CBK265680],100%
21,O=C(O)c1ccc(NS(=O)(=O)c2ccc(Cl)cc2)cc1O [CBK200023],111.947%
22,O=S(=O)(NCCc1csc(-c2cccnc2)n1)c1cccnc1 [CBK287546],100.512%
23,Cc1ccc(C)c(NC(=O)CCc2c(C)nn3cnnc3c2C)c1 [CBK304358],102.038%
24,Cc1ccc(S(=O)(=O)N2C(=O)CCC2C(=O)O/N=C(\N)c2cccnc2)cc1 (centres unmarked) [CBK266864],125.77%
25,CC1(C)Cc2c(ccc3ccccc23)C(NC(Cc2c[nH]c3ccccc23)C(=O)O)=N1 (centres unmarked) [CBK262569],111.152%

# 4 successive records out of the list so far, for reference:
row,SMILES,% of control remaining
14,NC(=O)CCN(CCC(N)=O)S(=O)(=O)c1ccc(N)cc1 [CBK262134],109.985%
15,CN1CCN(C(=O)COc2ccc(S(=O)(=O)Nc3ccc(Cl)cc3)cc2)CC1 [CBK268248],124.635%
16,CC(CNC(=O)COc1ccc2ccccc2c1Br)CN(C)C (centres unmarked) [CBK267369],158.049%
17,N=c1n(CCCOc2ccc(Br)cc2)c2ccccc2n1CC(N)=O [CBK268786C],87.1677%

# Continuation.

row,SMILES,% of control remaining
1,COC(=O)c1sccc1NS(=O)(=O)c1ccc(C(F)(F)F)cc1[N+](=O)[O-] [CBK004510],119.333%
2,CCN(CC)CCCNc1nccc(-c2cn(C)nc2C)n1 [CBK306654],95.1467%
3,O=c1c2[nH]c3ccccc3c2ncn1Cc1ccccc1 [CBK287809],114.624%
4,Cc1nccn1CC1(O)CCN(C(=O)C(C)c2ccccc2)CC1 (centres unmarked) [CBK285388],105.354%
5,O=S(=O)(c1ccc(Cl)cc1)N1CCN(CC(O)Cn2c3ccccc3c3ccccc32)CC1 (centres unmarked) [CBK264383],113.289%
6,Cc1cc(NC(=O)c2cc(Cl)ccc2[N+](=O)[O-])nc2c1c(=O)oc1ccccc12 [CBK291248],131.512%
7,COc1cccc([C@H]2CN(C(C)=O)[C@@H]3CCN(C4CCCC4)C[C@H]23)c1 [CBK283375],139.802%
8,CC(=O)N1CCCc2cc(C(O)CN3CCCC(C)C3)ccc21 (centres unmarked) [CBK282142],148.106%
9,CCCCCCN1CCN(c2nccn(CCOc3cc(F)c(F)cc3F)c2=O)CC1 [CBK045889C],118.683%
10,O=C(NCc1ccccc1)c1ccc(N2CCOCC2)nc1 [CBK200244],179.531%
11,CSCCC(C(=O)O)N1C(=O)c2ccccc2C1=O (centres unmarked) [CBK218448],92.7144%
12,Cc1cc(C)c2c(N)c(C(=O)Nc3ccc(Br)cc3)sc2n1 [CBK072019],49.542%
13,CC(Sc1ncc(-c2ccc(F)cc2)n1Cc1ccccc1)C(=O)NC1CC1 (centres unmarked) [CBK297105],82.6703%
14,CCN1CCN(c2nccnc2OCc2cccnc2)CC1 [CBK083142],87.9166%
15,O=C(CN1C(=O)N2CCN=C2c2ccc(Cl)cc21)NCC1CC1 [CBK282877],112.145%
16,COc1ccc(OC)c(NC(=O)CC2NCCNC2=O)c1 (centres unmarked) [CBK266477],103.291%
17,O=C(CSc1nnc2ccccn12)Nc1ccccc1 [CBK287328],93.5926%
18,CCOc1cc(CN2CCN(C/C=C/c3ccccc3)CC2)ccc1OC [CBK261573],110.719%
19,COc1ccccc1-c1ccc(CC2(C(=O)NC3CCCCC3)CCOCC2)cc1 [CBK286515],109.543%
20,COc1cc(CNc2nc[nH]n2)ccc1OCc1ccc(C)cc1 [CBK269768],94.9267%
21,Fc1ccc(-c2nccnc2OCc2ccc3c(c2)OCO3)cc1 [CBK106896],121.284%
22,CC(C(=O)NC1(C#N)CCCCC1)N1CCOC(Cn2cccn2)C1 (centres unmarked) [CBK305337],120.051%
23,COc1ccc(CSCc2n[nH]c(=O)[nH]2)cc1[N+](=O)[O-] [CBK267425],126.757%
24,COC[C@H]1CCCN1C(=O)Cn1[nH]c(C)c(Cc2c(Cl)cccc2Cl)c1=O [CBK115407],99.9077%
25,CCOC(=O)c1sc(-c2cccc(C(F)(F)F)c2)nc1O [CBK075064],89.3842%
